PubChem BioAssay AID504744 | Drosophila RNAi Screening Center | 2011
In all, the deposit lists about 23,000 reagents; shown is a random part of those that have a named target and a result. Of all reagents, 98 (0.43%) got an active call. 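Only hit calls are given; the phospho-dAkt signals, z-scores and hit direction were not deposited.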 Reagents against one gene are numbered here. A plus sign joins genes that one reagent is predicted to hit.

- Test: 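Identify dsRNAs that increase or decrease phospho-dAkt after insulin treatment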 (primary screen)
- System: Drosophila Kc167 cells
- Reagents: long dsRNA against Drosophila genes, 250 ng dsRNA per well of a 384-well plate
- Time to read-out: 3 days of knock-down, then overnight serum-free starvation before stimulation
- Treatment: bovine insulin at 387 nM for 10 minutes after 12 h without serum
- Read-out: 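Per-well phospho-dAkt level from an in-cell fluorescent antibody stain, divided by a DNA-dye signal; log2 residuals turned into z-scores that take cell number into account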
- Hit rule: 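Hit in the insulin screen when the two-replicate mean z-score is more extreme than plus or minus 2.5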

kl-2
- Call: inactive

Pkg21D
- Call: inactive

Aldh-III
- Call: inactive

CG17883
- Call: inactive

Femcoat
- Call: inactive

CG13926
- Call: inactive

Tsp68C
- Call: inactive

ND-51
- Call: inactive

alien + CG17906
- Call: inactive

Ccn #1
- Call: inactive

Ccn #2
- Call: inactive

Ccn #3
- Call: inactive

Ccn #4
- Call: inactive

CG5131
- Call: inactive

CG3894 #1
- Call: inactive

CG3894 #2
- Call: inactive

CG3894 #3
- Call: inactive

CR12798
- Call: inactive

CG11594
- Call: inactive

CG9154
- Call: inactive

su(w[a])
- Call: inactive

CG11839
- Call: inactive

hdly
- Call: inactive

CG42505 + CG42504 + CG31358 #1
- Call: inactive

CG42505 + CG42504 + CG31358 #2
- Call: inactive

CG42505 + CG42504 + CG31358 #3
- Call: inactive

Delta
- Call: inactive

rswl
- Call: inactive

Gr64f
- Call: inactive

CG32148
- Call: inactive

CG1136
- Call: inactive

Sgt1
- Call: inactive

wus
- Call: inactive

twe
- Call: inactive

CG18327
- Call: inactive

CG1161
- Call: inactive

CG15760
- Call: inactive

Pif1A #1
- Call: inactive

Pif1A #2
- Call: inactive

PIP82
- Call: inactive

CG18814
- Call: inactive

Individual results from the list:
ND-51, Call → inactive
Under “Call”, CG42505 + CG42504 + CG31358 #3 shows inactive
CG5131, Call = inactive
Result for Gr64f in “Call”: inactive
CG3894 #1, Call = inactive
Under “Call”, CG42505 + CG42504 + CG31358 #2 shows inactive

Next records:
Mob4
- Call: inactive

CG15922
- Call: inactive

CG42680
- Call: inactive

Spred
- Call: inactive

CG11231 (retired record)
- Call: inactive

CG17754
- Call: inactive

CG13685
- Call: inactive

Ski6
- Call: inactive

mbc
- Call: inactive

Sec10
- Call: inactive

sad
- Call: inactive

Rpt5
- Call: inactive

foxo #1
- Call: inactive

foxo #2
- Call: active

woc
- Call: inactive

CG7550
- Call: inactive

boss
- Call: inactive

cag
- Call: inactive

Osi15
- Call: inactive

CG34051
- Call: inactive

CG1812
- Call: inactive

CR42545
- Call: inactive

CG13018
- Call: inactive

p38c
- Call: inactive

CG31638 #1
- Call: inactive

CG31638 #2
- Call: inactive

CG12523
- Call: inactive

CG3407
- Call: inactive

CG17928
- Call: inactive

E(var)3-9
- Call: inactive

SCCRO3
- Call: inactive

Stat92E
- Call: inactive
